Test results reported in PubChem BioAssay AID1439 (NMMLSC, 2008).
Hit rate of the full screen: of about 220,000 compounds, about 770 (0.35%) were called active. This list was built around the results that the source calls inconclusive (neither active nor inactive); the mix of calls is not that of the screen. No stated cut-off is given here; in the data, active means binding response below about 49% or above about 150%; inconclusive means no clear call, values can overlap the other calls; inactive means in between.

Chains of the proteins cited; added tags and fusions are not shown.
UniProt P09471, whole entry, looked up: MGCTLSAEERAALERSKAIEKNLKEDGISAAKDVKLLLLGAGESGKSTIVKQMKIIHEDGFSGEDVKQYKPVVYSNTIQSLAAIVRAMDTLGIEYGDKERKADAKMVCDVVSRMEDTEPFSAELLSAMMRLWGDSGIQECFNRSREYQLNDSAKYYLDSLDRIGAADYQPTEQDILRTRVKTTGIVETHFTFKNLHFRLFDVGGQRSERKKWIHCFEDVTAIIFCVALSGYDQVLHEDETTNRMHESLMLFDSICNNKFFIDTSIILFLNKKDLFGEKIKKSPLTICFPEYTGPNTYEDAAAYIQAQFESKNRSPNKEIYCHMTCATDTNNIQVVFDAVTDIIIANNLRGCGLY

The compounds below were run against Guanine nucleotide-binding protein G(o) subunit alpha (Homo sapiens) (UniProt P09471) (assay: RGS7-Galphao binding modulators, primary screen, biochemical, multiplexed bead flow cytometry (AID 1439;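 further: fluorescent Galphao held in activated GDP-AlF4 state binding bead-coupled RGS7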)). Details: at 10 µM, actives lie on both sides.

| Compound | binding response (% of control) |
| --- | --- |
| COc1ccc(CCN(/C=C2\Sc3ccccc3C2=O)C(C)=O)cc1OC | inconclusive: 225% |
| COC(=O)c1sc(NC(=S)NC(=O)c2ccc(C)cc2)nc1C | inconclusive: 36.6% |
| COc1ccc(S(=O)(=O)NNC(=O)C(=O)NNc2ccccn2)cc1 | inconclusive: 172% |
| CC(C)(C)c1ccccc1NC(=O)c1c(O)c2cccc3c2n(c1=O)CC3 | inactive: 98.8% |
| CCOC(=O)NC(=O)/C(C#N)=N\Nc1cccc(Cl)c1 | inconclusive: 113% |
| C=CCNC(=S)NCCO | inconclusive: 163% |
| COc1cc(CCN2C(=O)N[C@@H](CCc3ccccc3)C(C(C)=O)=C2C)cc(OC)c1OC | inactive: 105% |
| NC(=O)C1CCN(C(=S)NCCc2ccccc2)CC1 | inactive: 95.7% |
| CCOc1ccc(NC(=O)c2cc(F)c(F)cc2Cl)cc1OCC | inconclusive: 85.1% |
| COc1cc(/C=C2\SC(=S)N(C(C(=O)O)c3ccccc3)C2=O)cc(OC)c1OC (configuration not stated) | inconclusive: 106% |
| O=C(Nc1ccc2c(c1)OCO2)N1CCN(c2cccc(C(F)(F)F)c2)CC1 | inactive: 68.2% |
| Cc1nn(CCCC(=O)O)c(C)c1[N+](=O)[O-] | inconclusive: 82.5% |
| O=C(/C=C/c1ccc(O)cc1)c1ccccc1 | inconclusive: 110% |
| CC(C)(C)OC(=O)N1CCC[C@H]1C(=O)N/N=C/c1ccc2nccnc2c1 | inconclusive: 185% |
| O=C(CN1C(=O)c2ccccc2C1=O)N1CCN(C2c3ccccc3-c3ccccc32)CC1 | inactive: 102% |
| O=c1[nH]c2c(cnn2-c2ccc(Cl)cc2)c(=O)n1-c1cccc(Cl)c1 | inconclusive: 71.2% |
| CCOc1ccc(CN2CCN(Cc3c(C)nn(CC)c3C)CC2CCO)cc1 (configuration not stated) | inconclusive: 95.1% |
| CN(C)S(=O)(=O)c1ccc2oc(SCC(=O)Nc3ccccc3F)nc2c1 | inconclusive: 98.3% |
| N#Cc1c(Nc2ccccc2)s[nH]c1=O | inconclusive: 114% |
| COc1cccc2cc(C(=O)OCC(=O)NCc3ccc4c(c3)OCO4)c(=O)oc12 | inconclusive: 89.7% |
| O=C(Nc1ccccc1Cl)Oc1ccc(Cl)cc1Cl | inconclusive: 62.6% |
| O=C(N/N=C\C=C\c1ccco1)C1COc2ccccc2O1 (configuration not stated) | inconclusive: 131% |
| CCN(CC)S(=O)(=O)c1ccc(Cl)c(C(=O)OCC(=O)c2c(N)n(C)c(=O)n(C)c2=O)c1 | inconclusive: 11.9% |

| Compound | binding response (% of control) |
| --- | --- |
| CC1C(c2ccccc2)=NNc2nc3c(c(=O)n(C)c(=O)n3C)n21 (configuration not stated) | inconclusive: 142% |
| COc1ccc(N=CC2=C(O)CC(C)(C)CC2=O)cc1OC | inconclusive: 81.3% |
| CCOC(=O)NC(=O)C(=CNc1ccc(C)cc1)C(=O)NC(=O)OCC | inactive: 100% |
| CCOC(=O)C1=C(C)OC(N)=C(C(=O)OCC)C1c1ccncc1 (configuration not stated) | inactive: 106% |
| Nc1[nH]n(-c2ccccc2)c(=O)c1N=Nc1ccc2c(c1)OCCO2 | inconclusive: 104% |
| O=Cc1cn(CC(=O)N2CCc3ccccc32)c2ccccc12 | inconclusive: 101% |
| CCCn1c(SCC(=O)NC2CCCc3ccccc32)n[nH]c1=O (configuration not stated) | inconclusive: 109% |
| O=C1COc2ccc(-c3csc(NCCc4ccccc4)n3)cc2N1 | inconclusive: 96.4% |
| CC1CCc2onc(C(=O)NCc3ccco3)c2C1 (configuration not stated) | inactive: 106% |
| O=C(Nc1ccc(-c2csc(Nc3ccccc3)n2)cc1)c1cc([N+](=O)[O-])cc(C(F)(F)F)c1 | inconclusive: 80.4% |
| COc1ccc(CNC(=O)C(c2ccncc2)N(C(=O)Cc2cccs2)c2cccnc2)cc1 (configuration not stated) | inconclusive: 86% |
| CC(C)(C)OC(=O)NCCCC[C@H](NC(=O)c1[nH]cnc1C(=O)Nc1ccc(CNC(=O)OC(C)(C)C)cc1)C(=O)OC(C)(C)C | inconclusive: 111% |
| Cc1ccc(C(=O)CSc2ccc(-c3ccncc3)nn2)cc1 | inconclusive: 92.1% |
| Cc1nn(Cc2ccccc2)c(Cl)c1/C=C/C(=O)OCC(=O)N1CCCC1=O | inconclusive: 102% |
| CC(Nc1ccc(Cl)c(Cl)c1)C(=O)NN (configuration not stated) | inconclusive: 239% |
| CC(C)CC(=O)N/N=C/c1c(N)n(C)c(=O)n(C)c1=O | inconclusive: 154% |
| COc1ccc(/C=C(\C#N)C(=O)NCC(c2ccc(F)cc2)N2CCOCC2)cc1 (configuration not stated) | inconclusive: 99.3% |
| Cc1cc(C(F)(F)F)cc(NNC(=O)NC(=O)c2ccccc2Cl)n1 | inconclusive: 124% |
| COC(=O)c1c(C)[nH]c(C(=O)NCc2ccco2)c1C | inconclusive: 106% |
| COc1ccc(-n2c(SCc3cn4c(C)cccc4n3)nc3ccccc3c2=O)cc1OC | inconclusive: 79.1% |
| O=C1CN(C(=O)CSc2nc3ccccc3c(=O)n2CCCN2CCOCC2)c2ccccc2N1 | inconclusive: -18% |
| Fc1ccc(N2CCN(c3ccc4c(C(F)(F)F)cc(C(F)(F)F)nc4n3)CC2)cc1 | inactive: 133% |
| CN1C(CC(=O)Nc2ccc(Cl)cc2Cl)c2ccccc2CC1(C)C (configuration not stated) | inconclusive: 83% |

| Compound | binding response (% of control) |
| --- | --- |
| CCN(CC)C(=O)COc1ccc(-c2nnc(Nc3ccc(OC)c(C(=O)NC)c3)c3ccccc23)cc1 | inconclusive: 179% |
| O=C(O)c1ccccc1-c1ccccc1C(=O)NCc1cccnc1 | inactive: 104% |
| O=c1c(C=NCC2CCCO2)c(-c2ccccc2)[nH]n1-c1ccc([N+](=O)[O-])cc1 (configuration not stated) | inconclusive: 100% |
| COc1cccc(CN2CCN(Cc3ccc(OC)c(OC)c3)CC2CCO)c1 (configuration not stated) | inactive: 105% |
| CCCOc1cc(C)c(S(=O)(=O)NC2CC(C)(C)NC(C)(C)C2)cc1C | inactive: 102% |
| CCOP(=O)(OCC)C(C)(C)NC(=O)Nc1ccc(Cl)c(Cl)c1 | inconclusive: 101% |
| CCOC(=O)C/C(C)=N/NC(=O)C1CC1(c1ccccc1)c1ccccc1 (configuration not stated) | inactive: 107% |
| O=c1cc(-c2ccccc2Cl)oc2ccc([N+](=O)[O-])c(O)c12 | inactive: 96.5% |
| Cc1ccc(Nc2nc(-c3cccnc3)nc3ccccc23)cc1 | inconclusive: 202% |
| CN(Cc1ccncc1)C1CC(=O)N(c2ccc(F)cc2)C1=O (configuration not stated) | inconclusive: 92.6% |
| Cc1nnc(Sc2cc(NCCCO)c([N+](=O)[O-])c3nonc23)s1 | inconclusive: 79.4% |
| Cn1cccc1C(=O)OCC(=O)N1CC(=O)Nc2ccccc21 | inactive: 113% |
| Cc1ccc(-n2ncc(C#N)c2N)cc1 | inconclusive: 102% |
| S=C(NC1CCCCC1)N1CCN(c2ccccn2)CC1 | inactive: 105% |
| Cc1cc(C(=O)OCC(=O)Nc2cccnc2Cl)c2ccccc2n1 | inactive: 98.3% |
| CCOC(=O)c1cccc(P(C)(C)=O)c1 | inactive: 103% |
| Cc1ccc(/C(N)=N/OC(=O)Cc2cccc3ccccc23)cc1 | inconclusive: 84% |
| CSCC(O)Cn1ncc2ccccc2c1=O (configuration not stated) | inconclusive: 101% |
| O=C1/C(=C\c2ccc(C(F)(F)F)cc2)CSc2sccc21 | inconclusive: 111% |
| COc1ccc(S(=O)(=O)n2nc(OCc3cccs3)cc2N)cc1 | inactive: 114% |
| O=C(Nc1ccc(O)c(-c2nc3ccccc3o2)c1)C1(c2ccc([N+](=O)[O-])cc2)CCCC1 | inactive: 97% |
| O=C(CCNC(=O)c1ccccc1Cl)Nc1cc(S(=O)(=O)N2CCOCC2)ccc1N1CCOCC1 | inconclusive: 88% |
| O=C(NCC1CCCO1)C1CCN(C2CCN(C3CCCCCC3)CC2)CC1 (configuration not stated) | inactive: 105% |

| Compound | binding response (% of control) |
| --- | --- |
| BrC(=C\c1ccccc1)/C=N/Nc1ccc2nncn2n1 | inconclusive: 96.3% |
| Cn1nccc1-c1cc(Cl)cc(Cl)c1O | inconclusive: -47.5% |
| C=CCSc1nnc(NC(=O)c2cccc(S(=O)(=O)N3CCOCC3)c2)s1 | inactive: 98.6% |
| COc1ccccc1/C=C/C(=O)NCCC1=CCCCC1 | inconclusive: 83.5% |
| COc1ccc(NS(=O)(=O)c2ccc3c(c2)NC(=O)CO3)cc1 | inactive: 104% |
| Cc1ccn2c(Nc3ccccc3C)c(-c3cccnc3)nc2c1 | inconclusive: 95.6% |
| Cc1nn(CC2CC2)c(=O)n1-c1ccccc1 | inactive: 102% |
| O=C(c1ccoc1)N1CCC2(CC1)Oc1ccc(F)cc1C(=O)C21CC(c2cccnc2)=NO1 (configuration not stated) | inconclusive: 106% |
| Cc1ccc2[nH]c3c(c2c1)CC/C(=C/c1ccccc1)C3=O | active: 214% [activator] |
| O=C(NCc1ccc(C(F)(F)F)cc1)C1CC(c2cccc(F)c2)=NO1 (configuration not stated) | inconclusive: 105% |
| O=C1Nc2ccccc2C1Cc1ccccc1 (configuration not stated) | inconclusive: 103% |
| Cc1ncsc1CCC(=O)N1CCCC(C(=O)c2ccc3c(c2)OCO3)C1 (configuration not stated) | inconclusive: 92.7% |
| Cc1nn(Cc2ccccc2)c(Cl)c1/C=C1\NC(=S)NC1=O | inactive: 102% |
| O=C(/C=C1\SC(=O)NC1=O)Nc1ccc(C(=O)O)cc1 | inconclusive: 81.5% |
| CN(C)c1nc(=NCc2ccco2)ss1 | inconclusive: 112% |
| CCc1cccc(NC(=O)CS(=O)Cc2nc(-c3ccc(C)cc3)oc2C)c1 (configuration not stated) | inactive: 104% |
| O=C(N/N=C/c1ccc(Cl)cc1Cl)C(=O)NC1CC1 | inconclusive: 104% |
| Nc1[nH]n(-c2ccccc2)c(=O)c1N=Nc1ccc2c(c1)OCO2 | inconclusive: 107% |
| CNC(=O)c1ncoc1-c1ccc(Cl)cc1 | inconclusive: 92% |
| O=C(Nc1ccc(Cl)cn1)Nc1ccc(Cl)cn1 | inconclusive: 107% |
| CC(C)(CO)NC(=S)NCc1ccco1 | inconclusive: 126% |
| CCOc1ccc(C2/C(=C(\O)c3cccc(OC)c3)C(=O)C(=O)N2c2ccccn2)cc1OC (configuration not stated) | inconclusive: 336% |
| C=CCn1c(Cc2c[nH]c3ccccc23)n[nH]c1=S | inactive: 99.8% |

Quoted from the listing.
binding response (% of control), CNC(=O)c1ncoc1-c1ccc(Cl)cc1 reads inconclusive: 92%
binding response (% of control), O=C(/C=C1\SC(=O)NC1=O)Nc1ccc(C(=O)O)cc1 reads inconclusive: 81.5%
binding response (% of control), C=CCn1c(Cc2c[nH]c3ccccc23)n[nH]c1=S reads inactive: 99.8%
binding response (% of control), O=C(Nc1ccc(Cl)cn1)Nc1ccc(Cl)cn1 reads inconclusive: 107%
binding response (% of control), O=C(N/N=C/c1ccc(Cl)cc1Cl)C(=O)NC1CC1 reads inconclusive: 104%
binding response (% of control), BrC(=C\c1ccccc1)/C=N/Nc1ccc2nncn2n1 reads inconclusive: 96.3%
binding response (% of control), CN(C)c1nc(=NCc2ccco2)ss1 reads inconclusive: 112%
